# Reference: article PMC11086750
# The chains behind the UniProt entries cited, without tags or fusion partners.
# UniProt Q86WV6: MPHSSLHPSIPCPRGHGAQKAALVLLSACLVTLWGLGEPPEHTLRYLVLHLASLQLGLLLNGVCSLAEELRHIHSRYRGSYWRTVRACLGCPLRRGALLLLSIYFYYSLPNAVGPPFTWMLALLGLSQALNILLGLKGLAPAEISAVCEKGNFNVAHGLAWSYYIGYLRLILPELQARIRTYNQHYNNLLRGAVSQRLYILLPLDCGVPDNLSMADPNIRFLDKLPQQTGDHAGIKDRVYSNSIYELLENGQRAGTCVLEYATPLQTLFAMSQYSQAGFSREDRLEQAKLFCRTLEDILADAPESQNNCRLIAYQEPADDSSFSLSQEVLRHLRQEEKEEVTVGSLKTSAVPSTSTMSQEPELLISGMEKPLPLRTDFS
# Results are given in words; binding and its absence hold for the method and conditions named. In cells and extracts the contact can be indirect. Some results given as binding are weak or reduced against the parent protein; the word gives no strength. Sequences can lack the tags named with a protein.
# Target: T1, FLAG-GSDMB (Gasdermin B) (human) (UniProt Q8TAX9)
# T1 sequence: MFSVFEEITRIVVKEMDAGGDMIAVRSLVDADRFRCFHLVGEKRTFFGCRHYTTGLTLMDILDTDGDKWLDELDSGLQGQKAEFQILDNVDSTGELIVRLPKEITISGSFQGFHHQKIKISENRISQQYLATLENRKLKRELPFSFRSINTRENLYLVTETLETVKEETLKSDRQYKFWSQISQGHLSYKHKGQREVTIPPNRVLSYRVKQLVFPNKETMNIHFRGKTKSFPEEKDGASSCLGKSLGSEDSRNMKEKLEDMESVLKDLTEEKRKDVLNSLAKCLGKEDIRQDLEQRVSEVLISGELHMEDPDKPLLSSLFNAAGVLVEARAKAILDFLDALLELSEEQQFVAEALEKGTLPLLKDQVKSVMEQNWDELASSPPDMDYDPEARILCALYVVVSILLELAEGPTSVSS
# Assay: co-IP; HEK293 cells co-transfected with a FLAG-tagged and an HA-tagged protein; IP with anti-FLAG beads, immunoblot with HA antibody
substance,measurement,value
HA-STING (stimulator of interferon genes) (from UniProt Q86WV6 1-379),binding,binds
